Laboratory results: the supplement of paper PMC6411743
± gives the standard deviation of the averaged measurements. This is a selection; strong and weak results do not stand in their true shares.

Protein sequences, listed by entry. Tags and fused reporters are not part of them. Lines headed by an entry give the natural chain unless they say otherwise; changes in a name come on top.
UniProt Q96Q45: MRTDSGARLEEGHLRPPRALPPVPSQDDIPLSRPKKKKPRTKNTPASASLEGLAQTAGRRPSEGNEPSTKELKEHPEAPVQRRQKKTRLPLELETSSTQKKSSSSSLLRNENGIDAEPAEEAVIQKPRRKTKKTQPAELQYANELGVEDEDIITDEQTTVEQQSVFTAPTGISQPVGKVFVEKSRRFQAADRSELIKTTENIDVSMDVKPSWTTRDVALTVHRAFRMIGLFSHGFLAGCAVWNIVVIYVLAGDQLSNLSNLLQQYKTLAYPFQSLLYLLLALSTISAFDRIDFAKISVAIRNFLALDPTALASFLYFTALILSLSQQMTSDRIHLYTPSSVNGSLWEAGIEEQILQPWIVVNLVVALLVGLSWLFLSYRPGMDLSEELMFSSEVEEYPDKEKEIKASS
UniProt Q96PY6: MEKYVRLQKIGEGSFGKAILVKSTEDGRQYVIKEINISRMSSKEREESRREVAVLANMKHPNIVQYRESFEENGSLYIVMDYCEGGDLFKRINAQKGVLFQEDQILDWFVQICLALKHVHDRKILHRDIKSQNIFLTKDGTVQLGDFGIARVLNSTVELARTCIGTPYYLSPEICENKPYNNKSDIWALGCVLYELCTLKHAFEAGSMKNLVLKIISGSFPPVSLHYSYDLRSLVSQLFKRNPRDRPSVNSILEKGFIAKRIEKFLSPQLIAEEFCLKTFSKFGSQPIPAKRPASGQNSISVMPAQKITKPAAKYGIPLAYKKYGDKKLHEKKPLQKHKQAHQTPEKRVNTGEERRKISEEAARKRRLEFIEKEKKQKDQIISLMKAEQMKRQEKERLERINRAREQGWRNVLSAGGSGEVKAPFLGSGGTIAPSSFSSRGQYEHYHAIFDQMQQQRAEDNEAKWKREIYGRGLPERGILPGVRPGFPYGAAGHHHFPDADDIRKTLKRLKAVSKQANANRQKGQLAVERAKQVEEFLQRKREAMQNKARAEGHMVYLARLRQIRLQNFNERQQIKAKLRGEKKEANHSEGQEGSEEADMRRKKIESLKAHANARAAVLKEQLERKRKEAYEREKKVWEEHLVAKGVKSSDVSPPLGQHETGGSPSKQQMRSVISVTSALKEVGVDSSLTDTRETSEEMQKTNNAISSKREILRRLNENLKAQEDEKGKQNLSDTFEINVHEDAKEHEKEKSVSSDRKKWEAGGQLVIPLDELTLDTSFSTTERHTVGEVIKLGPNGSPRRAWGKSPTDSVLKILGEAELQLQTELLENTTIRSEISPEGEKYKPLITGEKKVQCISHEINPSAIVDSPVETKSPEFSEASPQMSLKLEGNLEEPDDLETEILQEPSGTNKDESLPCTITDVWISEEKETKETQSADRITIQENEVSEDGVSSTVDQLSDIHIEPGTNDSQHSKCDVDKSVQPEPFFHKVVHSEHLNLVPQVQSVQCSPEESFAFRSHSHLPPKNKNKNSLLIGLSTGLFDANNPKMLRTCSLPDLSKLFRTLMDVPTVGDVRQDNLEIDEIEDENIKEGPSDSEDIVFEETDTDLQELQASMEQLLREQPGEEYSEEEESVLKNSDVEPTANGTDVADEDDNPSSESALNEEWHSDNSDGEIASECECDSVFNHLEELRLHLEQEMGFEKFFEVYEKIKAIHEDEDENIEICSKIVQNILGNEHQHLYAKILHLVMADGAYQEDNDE
UniProt Q96AQ6: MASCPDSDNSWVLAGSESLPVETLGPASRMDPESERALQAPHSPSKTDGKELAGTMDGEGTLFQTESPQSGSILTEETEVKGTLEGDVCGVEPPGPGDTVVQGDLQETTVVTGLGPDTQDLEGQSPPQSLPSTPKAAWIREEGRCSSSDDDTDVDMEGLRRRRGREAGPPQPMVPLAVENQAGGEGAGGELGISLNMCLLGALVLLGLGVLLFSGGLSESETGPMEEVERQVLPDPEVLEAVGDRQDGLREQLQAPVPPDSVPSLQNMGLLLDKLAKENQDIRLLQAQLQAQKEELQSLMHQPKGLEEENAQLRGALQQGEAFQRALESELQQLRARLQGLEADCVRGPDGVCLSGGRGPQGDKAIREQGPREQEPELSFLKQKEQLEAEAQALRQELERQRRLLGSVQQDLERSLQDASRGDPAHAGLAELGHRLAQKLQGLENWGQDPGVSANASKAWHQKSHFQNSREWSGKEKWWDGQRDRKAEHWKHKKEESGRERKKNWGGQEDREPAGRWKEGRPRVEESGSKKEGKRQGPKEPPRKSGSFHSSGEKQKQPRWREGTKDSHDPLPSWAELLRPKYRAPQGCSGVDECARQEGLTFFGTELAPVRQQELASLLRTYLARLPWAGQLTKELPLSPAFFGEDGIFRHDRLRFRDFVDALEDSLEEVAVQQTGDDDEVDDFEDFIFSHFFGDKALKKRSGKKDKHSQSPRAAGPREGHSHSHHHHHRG
UniProt Q96N64: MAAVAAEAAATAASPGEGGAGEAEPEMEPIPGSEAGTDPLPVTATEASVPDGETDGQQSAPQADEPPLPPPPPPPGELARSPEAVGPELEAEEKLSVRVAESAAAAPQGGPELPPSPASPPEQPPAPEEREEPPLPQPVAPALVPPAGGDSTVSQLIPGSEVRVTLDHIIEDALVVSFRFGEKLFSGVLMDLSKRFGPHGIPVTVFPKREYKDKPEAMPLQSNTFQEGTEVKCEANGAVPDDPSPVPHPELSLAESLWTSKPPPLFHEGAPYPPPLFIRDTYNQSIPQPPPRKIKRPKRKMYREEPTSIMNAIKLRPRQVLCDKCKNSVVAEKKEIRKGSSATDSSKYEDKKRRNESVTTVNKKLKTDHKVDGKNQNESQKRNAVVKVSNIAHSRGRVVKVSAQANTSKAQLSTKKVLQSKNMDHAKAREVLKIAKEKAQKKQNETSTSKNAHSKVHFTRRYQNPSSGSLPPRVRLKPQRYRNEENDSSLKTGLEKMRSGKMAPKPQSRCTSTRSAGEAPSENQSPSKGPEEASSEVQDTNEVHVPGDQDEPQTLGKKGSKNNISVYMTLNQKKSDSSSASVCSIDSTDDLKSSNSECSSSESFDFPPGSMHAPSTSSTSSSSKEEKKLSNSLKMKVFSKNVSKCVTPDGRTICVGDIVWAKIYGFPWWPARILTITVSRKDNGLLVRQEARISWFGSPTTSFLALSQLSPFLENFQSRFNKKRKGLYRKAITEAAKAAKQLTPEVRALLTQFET
UniProt Q96C90: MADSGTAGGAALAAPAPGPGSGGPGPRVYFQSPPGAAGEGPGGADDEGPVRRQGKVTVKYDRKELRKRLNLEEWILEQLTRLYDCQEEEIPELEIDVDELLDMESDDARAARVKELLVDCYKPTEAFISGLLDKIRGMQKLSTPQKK
UniProt Q96D96: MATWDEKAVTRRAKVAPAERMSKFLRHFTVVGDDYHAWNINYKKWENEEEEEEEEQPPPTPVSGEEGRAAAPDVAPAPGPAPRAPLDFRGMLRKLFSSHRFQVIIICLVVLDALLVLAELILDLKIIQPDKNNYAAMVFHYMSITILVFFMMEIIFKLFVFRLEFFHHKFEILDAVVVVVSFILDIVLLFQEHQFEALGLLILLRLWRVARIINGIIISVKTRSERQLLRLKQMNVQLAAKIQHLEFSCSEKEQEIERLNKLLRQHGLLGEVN
UniProt Q96AG4: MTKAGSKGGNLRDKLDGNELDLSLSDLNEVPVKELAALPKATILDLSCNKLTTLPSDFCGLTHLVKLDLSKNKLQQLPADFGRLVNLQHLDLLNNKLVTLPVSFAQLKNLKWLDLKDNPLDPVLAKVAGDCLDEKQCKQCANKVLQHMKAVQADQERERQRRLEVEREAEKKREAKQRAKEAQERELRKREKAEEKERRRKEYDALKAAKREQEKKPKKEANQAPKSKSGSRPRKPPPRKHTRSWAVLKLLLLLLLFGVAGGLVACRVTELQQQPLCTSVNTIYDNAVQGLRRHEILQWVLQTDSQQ
UniProt Q96P48: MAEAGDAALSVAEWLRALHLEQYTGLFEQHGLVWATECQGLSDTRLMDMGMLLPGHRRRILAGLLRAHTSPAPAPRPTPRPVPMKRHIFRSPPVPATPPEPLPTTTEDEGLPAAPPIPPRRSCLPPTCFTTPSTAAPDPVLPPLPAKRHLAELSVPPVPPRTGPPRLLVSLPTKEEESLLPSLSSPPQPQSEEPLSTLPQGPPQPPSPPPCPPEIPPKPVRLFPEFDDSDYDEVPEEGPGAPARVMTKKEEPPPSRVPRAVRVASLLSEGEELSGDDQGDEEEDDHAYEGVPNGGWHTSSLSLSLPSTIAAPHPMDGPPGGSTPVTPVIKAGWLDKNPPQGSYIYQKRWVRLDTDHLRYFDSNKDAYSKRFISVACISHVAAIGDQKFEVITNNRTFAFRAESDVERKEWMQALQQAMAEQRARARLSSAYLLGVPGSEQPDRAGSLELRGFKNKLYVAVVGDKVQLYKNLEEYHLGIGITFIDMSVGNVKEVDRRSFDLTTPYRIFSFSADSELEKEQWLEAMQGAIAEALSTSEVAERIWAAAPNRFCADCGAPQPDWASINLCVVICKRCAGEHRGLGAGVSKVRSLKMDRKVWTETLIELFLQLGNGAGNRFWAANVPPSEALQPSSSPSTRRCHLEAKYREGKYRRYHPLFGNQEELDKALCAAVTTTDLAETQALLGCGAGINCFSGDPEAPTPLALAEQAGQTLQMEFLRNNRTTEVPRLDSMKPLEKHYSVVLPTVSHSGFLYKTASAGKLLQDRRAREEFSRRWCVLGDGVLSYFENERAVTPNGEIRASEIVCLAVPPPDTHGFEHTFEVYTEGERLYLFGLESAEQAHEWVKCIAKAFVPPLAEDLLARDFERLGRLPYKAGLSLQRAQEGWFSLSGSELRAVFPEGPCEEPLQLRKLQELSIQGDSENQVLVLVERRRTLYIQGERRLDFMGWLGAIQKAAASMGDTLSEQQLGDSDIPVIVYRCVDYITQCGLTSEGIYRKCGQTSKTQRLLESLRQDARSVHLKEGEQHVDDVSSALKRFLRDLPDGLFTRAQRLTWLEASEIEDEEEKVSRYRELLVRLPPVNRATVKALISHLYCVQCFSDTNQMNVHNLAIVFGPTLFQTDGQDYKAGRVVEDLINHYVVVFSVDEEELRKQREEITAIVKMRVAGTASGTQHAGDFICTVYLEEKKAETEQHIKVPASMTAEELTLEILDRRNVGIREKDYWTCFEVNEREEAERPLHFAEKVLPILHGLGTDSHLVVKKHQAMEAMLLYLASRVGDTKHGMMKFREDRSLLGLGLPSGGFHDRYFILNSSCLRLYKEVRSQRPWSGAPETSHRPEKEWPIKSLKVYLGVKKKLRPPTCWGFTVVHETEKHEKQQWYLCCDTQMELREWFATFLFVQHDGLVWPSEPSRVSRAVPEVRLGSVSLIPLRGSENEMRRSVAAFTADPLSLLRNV
UniProt Q96MW1: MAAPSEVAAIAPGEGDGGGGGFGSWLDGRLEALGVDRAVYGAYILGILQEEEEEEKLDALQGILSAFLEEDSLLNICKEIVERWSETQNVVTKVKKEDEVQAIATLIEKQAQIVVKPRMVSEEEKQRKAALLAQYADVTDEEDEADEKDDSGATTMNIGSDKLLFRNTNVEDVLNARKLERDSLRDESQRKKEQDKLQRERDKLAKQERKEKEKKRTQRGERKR
UniProt Q96A33: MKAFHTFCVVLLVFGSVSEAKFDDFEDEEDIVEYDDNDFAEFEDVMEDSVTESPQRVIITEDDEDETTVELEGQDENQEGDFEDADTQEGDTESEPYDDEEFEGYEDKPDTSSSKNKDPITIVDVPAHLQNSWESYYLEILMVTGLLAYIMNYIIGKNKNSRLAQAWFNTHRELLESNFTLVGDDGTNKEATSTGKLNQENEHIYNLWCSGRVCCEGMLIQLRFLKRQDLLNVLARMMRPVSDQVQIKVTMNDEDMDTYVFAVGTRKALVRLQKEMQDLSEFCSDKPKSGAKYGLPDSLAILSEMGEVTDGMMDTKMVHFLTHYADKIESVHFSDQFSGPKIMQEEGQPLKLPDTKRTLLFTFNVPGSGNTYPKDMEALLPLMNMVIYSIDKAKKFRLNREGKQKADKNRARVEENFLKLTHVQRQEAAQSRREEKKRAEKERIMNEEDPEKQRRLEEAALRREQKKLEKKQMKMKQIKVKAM
UniProt Q96EX2: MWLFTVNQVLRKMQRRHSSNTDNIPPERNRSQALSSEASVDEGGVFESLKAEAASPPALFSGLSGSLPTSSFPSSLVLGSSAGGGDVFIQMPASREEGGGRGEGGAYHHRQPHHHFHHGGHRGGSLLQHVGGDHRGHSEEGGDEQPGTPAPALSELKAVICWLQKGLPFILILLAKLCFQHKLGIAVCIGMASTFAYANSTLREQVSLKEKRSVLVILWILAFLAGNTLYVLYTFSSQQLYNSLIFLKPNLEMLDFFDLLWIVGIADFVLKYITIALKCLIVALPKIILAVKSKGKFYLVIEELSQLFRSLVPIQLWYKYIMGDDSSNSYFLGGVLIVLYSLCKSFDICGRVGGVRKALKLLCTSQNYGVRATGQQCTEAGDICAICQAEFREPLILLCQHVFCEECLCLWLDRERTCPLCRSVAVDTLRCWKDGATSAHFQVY

Compound: Nc1ncnc2c1ncn2[C@@H]1O[C@H](COP(=O)(O)OP(=O)(O)NP(=O)(O)O)[C@@H](O)[C@H]1O [adenylyl imidodiphosphate]
Assay: NP40-soluble protein abundance relative to vehicle (solubility fold change) (ratio); higher = more soluble protein in presence of AMP-PNP
Procedure, shortened: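 Data come from three independent experiments in which Dounce-homogenised Jurkat crude lysate was treated at eight concentrations from 0.1 to 10 mM. Treatment ran 10 min at room temperature and then 3 min at 37 °C, after which 0.8% NP40 and benzonase were added for 60 min at 4 °C before ultracentrifugation. The supernatant underwent TMT labelling and LC-MS/MS, and vsn-normalised intensities were expressed as fold change against the detergent-processed vehicle in each replicate.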

Target | NP40-soluble protein abundance (concentration: 1mM) | NP40-soluble protein abundance (concentration: 2mM) | NP40-soluble protein abundance (concentration: 4mM) | NP40-soluble protein abundance (concentration: 6mM) | NP40-soluble protein abundance (concentration: 8mM) | NP40-soluble protein abundance (concentration: 10mM)
UniProt Q96HA8 and related entries | 0.979 ± 0.014 | 1.03 ± 0.043 | 1.03 ± 0.012 | 1.02 ± 0.029 | 1.03 ± 0.029 | 1.04 ± 0.045
NRBF2 (UniProt Q96F24) | 1.02 ± 0.052 | 1.07 ± 0.037 | 1.01 ± 0.054 | 0.947 ± 0.035 | 0.965 ± 0.048 | 0.953 ± 0.042
CDK5RAP3 (UniProt Q96JB5) | 1 ± 0.034 | 0.992 ± 0.014 | 0.994 ± 0.12 | 0.977 ± 0.096 | 1.05 ± 0.036 | 1.04 ± 0.04
UniProt Q96JM7 and related entries | 0.998 ± 0.037 | 1.02 ± 0.049 | 1.04 ± 0.011 | 1 ± 0.013 | 0.9861 ± 0.00078 | 0.965 ± 0.017
UniProt Q96Q45 and related entries | 1.01 ± 0.022 | 1.02 ± 0.04 | 1.038 ± 0.01 | 0.984 ± 0.017 | 1.01 ± 0.043 | 0.9947 ± 0.0086
UniProt Q96PY6 and related entries | 0.9959 ± 0.0098 | 0.993 ± 0.021 | 1 ± 0.038 | 0.949 ± 0.05 | 0.956 ± 0.019 | 0.944 ± 0.018
UniProt Q96ME1-4 | 0.97 ± 0.015 | 0.964 ± 0.016 | 0.993 ± 0.043 | 0.985 ± 0.024 | 1 ± 0.018 | 0.988 ± 0.072
UniProt Q96AQ6 and related entries | 1.035 ± 0.0056 | 1.09 ± 0.066 | 1.06 ± 0.015 | 1.03 ± 0.068 | 1.01 ± 0.013 | 1.0401 ± 0.001
UniProt Q96JC1 and related entries | 0.985 ± 0.018 | 0.932 ± 0.049 | 1.01 ± 0.013 | 0.974 ± 0.056 | 1 ± 0.017 | 0.975 ± 0.02
PWWP2A (UniProt Q96N64) | 1.03 ± 0.022 | 1.04 ± 0.062 | 1.05 ± 0.043 | 1.06 ± 0.027 | 1.06 ± 0.03 | 1.09 ± 0.076
UniProt Q96PU5 and related entries | 1.05 ± 0.032 | 1.07 ± 0.045 | 1.08 ± 0.039 | 1.05 ± 0.034 | 1.03 ± 0.059 | 1.03 ± 0.074
UniProt Q96D05 and related entries | 0.957 ± 0.027 | 0.987 ± 0.011 | 0.972 ± 0.045 | 0.987 ± 0.044 | 0.97 ± 0.05 | 0.972 ± 0.048
PPP1R14B (UniProt Q96C90) | 1 ± 0.034 | 1.03 ± 0.014 | 0.978 ± 0.011 | 0.9649 ± 0.0037 | 0.98 ± 0.016 | 0.987 ± 0.012
UniProt Q96PU8 and related entries | 0.996 ± 0.058 | 1.02 ± 0.051 | 0.978 ± 0.064 | 0.926 ± 0.019 | 0.933 ± 0.05 | 0.893 ± 0.032
UniProt Q96D96 and related entries | 1.02 ± 0.053 | 0.991 ± 0.027 | 1.04 ± 0.052 | 1.03 ± 0.067 | 1.03 ± 0.079 | 1.04 ± 0.12
UniProt Q96L92 and related entries | 0.969 ± 0.013 | 0.938 ± 0.068 | 0.969 ± 0.029 | 0.948 ± 0.013 | 0.957 ± 0.037 | 0.925 ± 0.054
THOC3 (UniProt Q96J01) | 1.07 ± 0.069 | 1.1 ± 0.075 | 1.17 ± 0.15 | 1.24 ± 0.16 | 1.3 ± 0.23 | 1.34 ± 0.27
LRRC59 (UniProt Q96AG4) | 1.11 ± 0.048 | 1.32 ± 0.3 | 1.13 ± 0.089 | 1.15 ± 0.028 | 1.12 ± 0.052 | 1.19 ± 0.13
UniProt Q96KB5 and related entries | 0.996 ± 0.013 | 0.945 ± 0.049 | 0.982 ± 0.022 | 0.987 ± 0.02 | 0.986 ± 0.024 | 0.981 ± 0.012
UniProt Q96P48 and related entries | 0.968 ± 0.022 | 0.896 ± 0.14 | 0.983 ± 0.07 | 0.903 ± 0.059 | 0.955 ± 0.066 | 0.882 ± 0.062
MSI2 (UniProt Q96DH6) | 1 ± 0.029 | 1.03 ± 0.033 | 1.03 ± 0.044 | 1.06 ± 0.046 | 1.05 ± 0.021 | 1.07 ± 0.044
EDC3 (UniProt Q96F86) | 1.09 ± 0.025 | 1.03 ± 0.064 | 1.03 ± 0.05 | 1 ± 0.043 | 0.995 ± 0.043 | 0.999 ± 0.052
UniProt Q96HI0 and related entries | 0.98 ± 0.012 | 0.989 ± 0.0019 | 0.95908 ± 5.7e-06 | 0.9327 ± 0.0078 | 0.9166 ± 0.0065 | 0.917 ± 0.0073
CCDC43 (UniProt Q96MW1) | 0.974 ± 0.057 | 1.05 ± 0.064 | 0.972 ± 0.048 | 0.93 ± 0.027 | 0.904 ± 0.042 | 0.9 ± 0.11
CCDC47 (UniProt Q96A33) | 1.04 ± 0.03 | 1.01 ± 0.019 | 1.02 ± 0.041 | 1.02 ± 0.027 | 1.04 ± 0.049 | 1.02 ± 0.044
UniProt Q96BD5 and related entries | 1.02 ± 0.05 | 1.02 ± 0.016 | 1.05 ± 0.035 | 1.06 ± 0.016 | 1.07 ± 0.037 | 1.1 ± 0.029
NSL1 (UniProt Q96IY1) | 1.01 ± 0.027 | 1.03 ± 0.034 | 1.02 ± 0.04 | 1.04 ± 0.052 | 1.03 ± 0.041 | 1.05 ± 0.049
UniProt Q96EX2 | 1.002 ± 0.0031 | 0.979 ± 0.029 | 0.9437 ± 0.0026 | 0.993 ± 0.026 | 0.972 ± 0.024 | 0.96 ± 0.018
UniProt Q96LA8 and related entries | 0.97892 ± 0.00094 | 0.922 ± 0.067 | 0.978 ± 0.042 | 0.978 ± 0.021 | 1.007 ± 0.0015 | 0.976 ± 0.022
UniProt Q96K17 | 1.01 ± 0.032 | 1.09 ± 0.1 | 1.04 ± 0.038 | 1.05 ± 0.036 | 1.04 ± 0.052 | 1.07 ± 0.059

Another view of some results above.
MSI2 (UniProt Q96DH6)
  NP40-soluble protein abundance (concentration: 1mM): 1 ± 0.029; NP40-soluble protein abundance (concentration: 2mM): 1.03 ± 0.033; NP40-soluble protein abundance (concentration: 4mM): 1.03 ± 0.044; NP40-soluble protein abundance (concentration: 6mM): 1.06 ± 0.046; NP40-soluble protein abundance (concentration: 8mM): 1.05 ± 0.021; NP40-soluble protein abundance (concentration: 10mM): 1.07 ± 0.044
EDC3 (UniProt Q96F86)
  NP40-soluble protein abundance (concentration: 1mM): 1.09 ± 0.025; NP40-soluble protein abundance (concentration: 2mM): 1.03 ± 0.064; NP40-soluble protein abundance (concentration: 4mM): 1.03 ± 0.05; NP40-soluble protein abundance (concentration: 6mM): 1 ± 0.043; NP40-soluble protein abundance (concentration: 8mM): 0.995 ± 0.043; NP40-soluble protein abundance (concentration: 10mM): 0.999 ± 0.052
